Our source for the binding values is US20240033354A1.

Sequences of proteins named here, by UniProt entry; tags and fusion partners are left off. A change or cut given only in a name is not applied to a line headed by its entry.
UniProt P18177: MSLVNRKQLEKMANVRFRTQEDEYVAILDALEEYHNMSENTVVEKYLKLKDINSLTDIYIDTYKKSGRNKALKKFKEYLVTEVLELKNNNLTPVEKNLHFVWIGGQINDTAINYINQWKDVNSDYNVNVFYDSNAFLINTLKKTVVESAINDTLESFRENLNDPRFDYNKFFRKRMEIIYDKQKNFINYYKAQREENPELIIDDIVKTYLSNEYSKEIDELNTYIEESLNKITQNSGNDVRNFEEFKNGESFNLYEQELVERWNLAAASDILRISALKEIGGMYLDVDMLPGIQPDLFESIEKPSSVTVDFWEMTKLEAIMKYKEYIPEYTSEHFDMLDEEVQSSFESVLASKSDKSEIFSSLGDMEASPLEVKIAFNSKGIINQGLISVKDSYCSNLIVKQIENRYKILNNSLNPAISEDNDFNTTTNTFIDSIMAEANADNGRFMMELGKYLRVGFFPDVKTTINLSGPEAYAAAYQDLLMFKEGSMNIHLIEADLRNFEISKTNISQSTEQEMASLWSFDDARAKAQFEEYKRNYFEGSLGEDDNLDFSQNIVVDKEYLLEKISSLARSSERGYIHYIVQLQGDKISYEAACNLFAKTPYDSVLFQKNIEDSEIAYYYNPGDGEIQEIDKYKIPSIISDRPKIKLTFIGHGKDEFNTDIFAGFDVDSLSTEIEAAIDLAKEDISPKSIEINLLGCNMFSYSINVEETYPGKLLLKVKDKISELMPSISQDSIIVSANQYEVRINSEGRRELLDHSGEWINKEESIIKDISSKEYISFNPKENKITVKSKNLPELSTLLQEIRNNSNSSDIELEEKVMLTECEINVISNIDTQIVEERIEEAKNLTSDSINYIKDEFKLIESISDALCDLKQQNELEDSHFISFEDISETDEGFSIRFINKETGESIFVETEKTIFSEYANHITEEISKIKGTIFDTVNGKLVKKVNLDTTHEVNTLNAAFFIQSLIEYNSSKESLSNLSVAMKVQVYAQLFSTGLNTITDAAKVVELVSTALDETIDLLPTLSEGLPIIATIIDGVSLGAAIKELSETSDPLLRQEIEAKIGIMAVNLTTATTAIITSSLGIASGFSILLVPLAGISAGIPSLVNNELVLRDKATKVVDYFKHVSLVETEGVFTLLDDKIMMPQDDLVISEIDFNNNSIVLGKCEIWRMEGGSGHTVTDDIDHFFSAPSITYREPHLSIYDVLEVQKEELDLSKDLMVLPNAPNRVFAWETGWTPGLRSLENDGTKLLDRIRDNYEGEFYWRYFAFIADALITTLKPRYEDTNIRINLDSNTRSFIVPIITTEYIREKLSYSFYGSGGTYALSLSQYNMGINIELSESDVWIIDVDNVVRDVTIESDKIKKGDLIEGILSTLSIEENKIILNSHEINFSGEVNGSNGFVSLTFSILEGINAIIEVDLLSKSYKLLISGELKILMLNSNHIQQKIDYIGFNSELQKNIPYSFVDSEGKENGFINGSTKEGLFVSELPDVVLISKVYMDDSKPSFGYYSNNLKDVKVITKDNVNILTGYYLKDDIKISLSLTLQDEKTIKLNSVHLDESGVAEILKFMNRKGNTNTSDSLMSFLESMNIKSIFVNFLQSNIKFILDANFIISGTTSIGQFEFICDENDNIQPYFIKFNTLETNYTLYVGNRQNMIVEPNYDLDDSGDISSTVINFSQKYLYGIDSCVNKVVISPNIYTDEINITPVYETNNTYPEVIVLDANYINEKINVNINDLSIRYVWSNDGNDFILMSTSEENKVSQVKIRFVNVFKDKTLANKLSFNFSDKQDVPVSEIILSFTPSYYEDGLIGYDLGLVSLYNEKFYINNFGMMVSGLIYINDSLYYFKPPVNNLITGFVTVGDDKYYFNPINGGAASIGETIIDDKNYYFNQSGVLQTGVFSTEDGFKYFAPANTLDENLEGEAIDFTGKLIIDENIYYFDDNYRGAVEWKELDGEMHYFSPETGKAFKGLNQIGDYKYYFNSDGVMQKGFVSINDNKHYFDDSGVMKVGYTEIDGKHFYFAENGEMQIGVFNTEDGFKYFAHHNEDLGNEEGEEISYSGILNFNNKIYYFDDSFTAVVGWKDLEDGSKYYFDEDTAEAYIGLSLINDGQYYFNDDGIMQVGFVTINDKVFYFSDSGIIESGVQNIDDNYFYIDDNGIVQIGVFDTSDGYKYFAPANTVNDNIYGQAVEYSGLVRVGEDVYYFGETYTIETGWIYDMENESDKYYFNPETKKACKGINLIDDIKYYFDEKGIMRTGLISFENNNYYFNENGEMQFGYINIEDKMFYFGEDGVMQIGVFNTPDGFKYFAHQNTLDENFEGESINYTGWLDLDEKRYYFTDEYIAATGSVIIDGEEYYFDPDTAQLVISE
UniProt Q6UVK1: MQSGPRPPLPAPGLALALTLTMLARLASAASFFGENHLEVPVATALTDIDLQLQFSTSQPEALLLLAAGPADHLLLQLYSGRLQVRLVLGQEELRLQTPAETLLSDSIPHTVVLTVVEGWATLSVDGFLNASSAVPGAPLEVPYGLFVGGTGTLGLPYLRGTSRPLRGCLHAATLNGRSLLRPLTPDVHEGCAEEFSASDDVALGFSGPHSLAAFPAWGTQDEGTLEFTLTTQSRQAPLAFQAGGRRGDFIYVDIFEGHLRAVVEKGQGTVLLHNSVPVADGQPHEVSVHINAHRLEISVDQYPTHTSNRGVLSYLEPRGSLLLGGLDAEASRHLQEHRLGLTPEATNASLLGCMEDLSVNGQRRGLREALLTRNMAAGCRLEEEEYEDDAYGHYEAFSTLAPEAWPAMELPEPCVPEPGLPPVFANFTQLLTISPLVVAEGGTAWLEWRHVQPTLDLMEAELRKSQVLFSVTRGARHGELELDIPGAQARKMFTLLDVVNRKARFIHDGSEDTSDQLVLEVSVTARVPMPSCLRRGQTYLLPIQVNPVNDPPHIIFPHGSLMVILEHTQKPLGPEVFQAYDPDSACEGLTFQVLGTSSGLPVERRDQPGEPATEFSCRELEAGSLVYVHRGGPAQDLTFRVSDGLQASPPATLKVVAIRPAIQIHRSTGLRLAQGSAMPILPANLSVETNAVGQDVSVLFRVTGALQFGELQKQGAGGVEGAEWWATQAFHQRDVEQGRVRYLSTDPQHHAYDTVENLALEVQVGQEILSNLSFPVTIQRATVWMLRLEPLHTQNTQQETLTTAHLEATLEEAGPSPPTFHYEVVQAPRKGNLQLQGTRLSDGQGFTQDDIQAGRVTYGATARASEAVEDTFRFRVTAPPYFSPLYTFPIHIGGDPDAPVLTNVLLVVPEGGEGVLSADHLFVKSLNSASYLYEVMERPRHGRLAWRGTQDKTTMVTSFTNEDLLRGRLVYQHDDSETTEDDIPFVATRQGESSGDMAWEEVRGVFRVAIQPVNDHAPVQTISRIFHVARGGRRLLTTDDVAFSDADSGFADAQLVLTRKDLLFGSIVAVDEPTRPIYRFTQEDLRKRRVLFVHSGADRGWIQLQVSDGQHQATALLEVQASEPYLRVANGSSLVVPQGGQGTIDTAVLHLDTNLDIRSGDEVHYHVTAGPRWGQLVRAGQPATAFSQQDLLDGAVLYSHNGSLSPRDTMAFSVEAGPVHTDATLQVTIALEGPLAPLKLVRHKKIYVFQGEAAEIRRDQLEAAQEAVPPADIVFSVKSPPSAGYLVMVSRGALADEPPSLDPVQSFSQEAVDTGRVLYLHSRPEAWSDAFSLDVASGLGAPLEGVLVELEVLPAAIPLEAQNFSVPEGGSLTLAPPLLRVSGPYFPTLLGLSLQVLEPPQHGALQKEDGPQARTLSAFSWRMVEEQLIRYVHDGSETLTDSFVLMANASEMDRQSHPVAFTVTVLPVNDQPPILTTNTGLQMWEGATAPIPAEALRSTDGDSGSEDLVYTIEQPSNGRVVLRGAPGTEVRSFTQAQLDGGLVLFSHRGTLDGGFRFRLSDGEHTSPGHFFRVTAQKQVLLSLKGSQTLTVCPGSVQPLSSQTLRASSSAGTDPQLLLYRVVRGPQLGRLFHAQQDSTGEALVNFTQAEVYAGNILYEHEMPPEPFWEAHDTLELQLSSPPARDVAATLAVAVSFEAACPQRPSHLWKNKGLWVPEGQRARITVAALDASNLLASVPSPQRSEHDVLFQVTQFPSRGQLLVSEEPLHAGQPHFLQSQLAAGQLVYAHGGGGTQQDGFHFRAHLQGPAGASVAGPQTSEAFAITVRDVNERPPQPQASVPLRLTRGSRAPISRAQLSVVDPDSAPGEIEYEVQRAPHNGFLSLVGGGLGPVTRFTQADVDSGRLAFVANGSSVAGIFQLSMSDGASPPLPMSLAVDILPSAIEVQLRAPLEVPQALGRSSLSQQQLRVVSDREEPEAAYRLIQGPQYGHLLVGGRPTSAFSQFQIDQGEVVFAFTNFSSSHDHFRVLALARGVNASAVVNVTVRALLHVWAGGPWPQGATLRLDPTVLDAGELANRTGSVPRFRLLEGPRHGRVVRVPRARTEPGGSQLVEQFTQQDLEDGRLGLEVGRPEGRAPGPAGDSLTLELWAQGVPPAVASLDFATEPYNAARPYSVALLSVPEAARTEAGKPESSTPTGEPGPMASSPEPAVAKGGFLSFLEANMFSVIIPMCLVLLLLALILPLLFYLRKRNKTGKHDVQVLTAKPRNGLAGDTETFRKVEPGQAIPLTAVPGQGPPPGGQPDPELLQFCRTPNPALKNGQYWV

In experiment [1] the target is TcdB (construct not stated; partner in the pull down assays of Table 4) (Clostridium difficile, VPI10463 strain) (UniProt P18177). Nature of the experiment: pull down assays of TcdB and CSPG4 fragments.
Experiment [2] deals with CSPG4 (construct not stated; partner in the pull down assays of Table 4) (human) (UniProt Q6UVK1). Kind of experiment: pull down assays of TcdB and CSPG4 fragments.
Experiment [3] addresses CSPG4^ECD (CSPG4 extracellular domain, residues 30-2204) (human) (UniProt Q6UVK1). Nature of the experiment: XL-MS with DHSO on the purified TcdB-CSPG4^ECD complex.

Results are given in words; binding and its absence hold for the method and conditions named. Some results given as binding are weak or reduced against the parent protein; the word gives no strength.

In the case of “CSPG4^mini (CSPG4 residues 30-764) (from UniProt Q6UVK1 30-764) (receptor)”, the binding result in experiment [1] is reported as “binds”.
“TcdB fragment 1-2099 (from UniProt P18177 1-2099)”: in experiment [2], the binding entry was “binds”.
Consider “CSPG4 fragment 410-551 (Repeat1; construct of Table 4) (from UniProt Q6UVK1 410-551) (receptor)”, for which, in experiment [1], the binding entry was “binds”.
Take “Twin-Strep tagged full-length wild-type TcdB1 (expressed in E. coli) (from UniProt P18177 1-2366)”: the binding entry in experiment [2] and in experiment [3] was “binds” in each case.
Take “CSPG4^ECD (CSPG4 extracellular domain, residues 30-2204) (from UniProt Q6UVK1 30-2204) (receptor)”: the binding result in experiment [1] was “binds”.
